The values that follow come from patent US20080261892A1 (priority 2005, published 2008).

Data set [1] can be described thus: general procedure: Fmoc solid-phase peptide synthesis; Rink Amide AM; HBTU/HOBt/NMM. The conditions noted are these: whole synthesis, scale 2 grams of Rink Amide AM resin (loading: 0.63 mmol/g), TFA salt.
Data set [2] is described as follows: general procedure: Fmoc solid-phase peptide synthesis; Rink Amide AM resin (Novabiochem); HBTU/HOBt/NMM. The conditions noted are these: for final HPLC purity: analytical HPLC, detection at 220 nm.

Regarding “Ac-Pro-His-Ser-Cys-Asn-NH2 (PHSCN; N-acetyl, C-amide; Fibronectin derivative (Anti-angiogenesis peptide))”, in data set [1], the crude mass came out at 708 mg. The step yield was found to be 100% in data set [2] (late stage modification step, D-(+)-camphorsulfonic acid salt); 87% in data set [2] (late stage modification step, acetic acid salt); 69% in data set [2] (late stage modification step, free base, run 1); 49% in data set [2] (late stage modification step, free base, run 2); 99% in data set [2] (late stage modification step, glycolic acid salt); 105% in data set [2] (late stage modification step, phosphoric acid salt). For the same substance, the step yield in data set [2] (late stage modification step, sulfuric acid salt) worked out at 92%. Further, the “final HPLC purity” value in data set [2] (late stage modification step, free base) was 94% monomer; in data set [2] (whole synthesis, scale of the general procedure 2 grams of Rink Amide AM resin (loading: 0.63 mmol/g), TFA salt), 99%.

“Ac-Pro-His-Ser-Cys-Asn-NH2 Methanesulfonic Acid Salt (PHSCN; N-acetyl, C-amide, methanesulfonate salt; printed: Pro-His-Ser-Cys-Asn-)”: the step yield in data set [2] (late stage modification step, methanesulfonic acid salt) came out at 98%.

On to “Ac-Pro-His-Ser-Cys-Asn-NH2, hydrochloride salt (PHSCN; N-acetyl, C-amide, hydrochloride salt; printed: Pro-His-Ser-Cys-Asn-)”, for which the “final HPLC purity” value in data set [2] (late stage modification step, hydrochloride salt) is 93% monomer.
